# Results deposited as PubChem BioAssay AID602196 (INSERM, 2012).
# Purpose: 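Genes whose knock-down alters cisplatin killing of lung cancer cells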
# Cells: human A549 lung cancer cells
# Knock-down reagent: siRNA pair against human genes
# Time to read-out: 48 h transfection before cisplatin; time from cisplatin to read-out not stated
# Treatment: cisplatin at a dose killing half of control-siRNA cells; exact dose and duration not given
# Measured: 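Shift in cisplatin death relative to control siRNA, from -50 (all cells die) to +50 (no cells die); siRNAs harmful on their own scored 0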
# Scale: two-siRNA summed score (-2 to +2): higher = both siRNAs protect from cisplatin killing; -2 means both sensitise; mean protection from cisplatin (shift in death) and protection from cisplatin (shift in death), siRNA C: higher = protection from cisplatin killing
# Rule for the call: 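Each siRNA scores 0 if harmful alone by LDH or WST-1, otherwise +1 if it reduces and -1 if it increases cisplatin killing; a gene is active when both siRNAs agree (sum +2 or -2)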
# Meaning of the calls: active = both siRNAs shift cisplatin killing the same way; inactive = no consistent shift, or siRNA harmful alone
# The deposit covers about 23,000 reagents; this is a part drawn at random. 455 of all reagents (2%) were called active. 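Active includes both protection and sensitisation; some change values fall well beyond the stated -50 to +50 range.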 Entries without a mark were called inactive. Reagents against one gene are numbered here. Further read-outs or replicates are left out here. Not stated in the record: the amount of reagent.
target,reagent,two-siRNA summed score (-2 to +2),mean protection from cisplatin (shift in death) (%),"protection from cisplatin (shift in death), siRNA C (%)"
FEZ2,1,0,3.6,8.3
GLIPR1,1,0,4.8,12.5
FAM91A1,1,0,2.4,1.4
TBX2,1,0,-7.8,-14.9
TXNIP,1,0,-7.3,-8.6
PAPPA2,1,0,8,1.7
EID3,1,1,12.2,4.7
OR4N4,1,-1,-6.8,-5.3
TRIM10,1,0,3.5,7.5
TRMT2B,1,0,-2.7,0.7
LOC400508,1,1,10.1,7.8
LOC442608,1,0,-0.1,-7.2
STPG4,1,1,13.3,2.7
FLJ34306,1,0,8.6,10.2
GSDME,1,0,3.1,11
LOC400946,1,0,4.4,-0.8
TCF7L1,1,0,6.4,4.1
BDNF,1,0,-1.3,-1.9
SMIM8,1,0,-3.8,1.9
SLC22A9,1,-1,-13.8,-0.1
RFX1,1,0,9.1,0.2
SPRYD7,1,0,6.3,-4.5
TP53TG5,1,0,10.2,19.5
MCMDC2,1,0,11.1,16.3
CACFD1,1,1,-3.8,8.2
FGR,1,0,1.2,29.4
LOC399839,1,0,3.2,4.1
TSLIG3A,1,0,8.3,6.3
SLC35F4,1,0,1.9,6.4
SAR1B,1,1,13.6,22.5
LOC340893,1,1,16.2,14.6
LOC441215,1,0,1.8,4.4
DNAJB8,1,-1,-9.1,-21.2
UBE2Z,1,0,-0.3,-2.1
NOS1AP,1,1,7.2,-3.9
GSTM1,1,-1,-15.9,-40.5
KLK12,1,0,-3.1,4
LOC342865,1,0,9.4,5.8
LOC390570,1,0,15.6,25.1
CFAP107,1,0,15.7,16.4
DBNL,1,0,9.2,0.8
DBNL,2,1,3.7,-3.2
PYHIN1,1,1,8.4,5.3
RHBDL1,1,0,5.3,-1.5
LOC92755,1,0,12.5,5.6
OR9Q2,1,0,9.7,10
NTAQ1,1,0,7,-2
HOXB2,1,0,14.6,15.3
CD101,1,-1,2.8,21.5
PDF,1,1,11.1,3.4
TAPBP,1,-1,-11.3,-6.8
ZFYVE21,1,0,7,11.4
MTA3,1,0,2.2,8.1
PRODH2,1,0,2.9,18
TRMO,1,0,1.4,-6.2
EMP1,1,1,30.3,40.9
LOC440378,1,0,8.3,10.1

Ordered by “mean protection from cisplatin (shift in death) (%)” (descending): some entries from above.
target,reagent,two-siRNA summed score (-2 to +2),mean protection from cisplatin (shift in death) (%),"protection from cisplatin (shift in death), siRNA C (%)"
CFAP107,1,0,15.7,16.4
LOC390570,1,0,15.6,25.1
DBNL,1,0,9.2,0.8
PYHIN1,1,1,8.4,5.3
RHBDL1,1,0,5.3,-1.5
DBNL,2,1,3.7,-3.2
